{
  "source": "patent US12448425B2",
  "about": "“Therapeutic peptides” (Board of Regents, The University of Texas System, priority 2019, dated 2025)",
  "tested_on": "EphB4 and Crk1",
  "assay": "Phosphorylation of EphB4 and Crk1 in A2780cp20 cells (IP/immunoblot)",
  "type": "cell-based, human",
  "method": "FIGS. 2A-C: BIDEN-AP acts as an EphB4 agonist. (FIG. 2A) BIDEN-AP induced phosphorylation of EphB4 and the associated […] (Crk1). After 16 h serum starvation, A2780cp20 cells were incubated with EFNB2-Fc (20 nM), TNYL-RAW (SEQ ID NO: 12) (50 μM), or BIDEN-AP (50 μM) for 30 min or 2 h. The uncropped blots were available at Supplemental FIG. 11. (FIG. 2B) BIDEN-AP inhibited A2780cp20 cell invasion compared to untreated control (CTL). A modified Boyden transwell chamber coated with human defined matrigel was used. Experiments were performed in triplicate. Data are presented as mean±SD. ***p<0.001. (FIG. 2C) Alexa647-BIDEN-AP was internalized via receptor-mediated endocytosis. A2780cp20 cells were incubated at 37° C. with Alexa647-BIDEN-AP (0.05 μM), Alexa647-TNYL-RAW (SEQ ID NO: 12) (0.05 μM), or Alexa647-BIDEN-AP (0.05 μM) plus unlabeled TNYL-RAW (SEQ ID NO: 12) (5 μM, blocking). Alexa647-BIDEN-AP but not Alexa647-TNYL-RAW (SEQ ID NO: 12) was internalized into the A2780cp20 cells.\nTotal protein lysates were harvested and subjected to Nupage-SDS separation followed by immunoblotting. […] CTL, untreated control. The uncropped blots were available at Supplemental FIG. 11.\nImmunoblotting, immunoprecipitation, and co-immunoprecipitation. […] The protein concentrations were determined by using a BCA Protein Assay Reagent kit (Pierce Biotechnology, Rockford, IL). […]",
  "note": "Part of at least one peptide drawing is inferred or uncertain, most often the ends. Square brackets hold non-standard residues; d marks the D form. Peptide text beside a SMILES is read from it.",
  "data": [
    {"smiles": "CC[C@H](C)[C@H](NC(=O)[C@@H]1CCCN1C(=O)CNC(=O)[C@H](CC(N)=O)NC(=O)[C@@H]1CCCN1C(=O)[C@H](CO)NC(=O)[C@H](Cc1ccccc1)NC(=O)[C@H](CC(C)C)NC(=O)[C@@H](Cc1ccc(O)cc1)NC(=O)[C@H](CC(N)=O)NC(=O)[C@@H](N)[C@@H](C)O)C(=O)N[C@@H](C)C(=O)N[C@@H](CCCNC(=N)N)C(=O)N[C@@H](C)C(=O)N[C@@H](Cc1c[nH]c2ccccc12)C(N)=O", "note": "[BIDEN-AP] (H-TN[dY]LFSPNGPIARAW-NH2; C-terminus assumed)", "values": [
      {"measurement": "phosphorylation of EphB4 and Crk1 in vitro", "result": "increased phosphorylation of both EphB4 and Crk1"}
    ]}
  ]
}
